Sequences of proteins named here, by UniProt entry; tags and fusion partners are left off. A change or cut given only in a name is not applied to a line headed by its entry.
UniProt Q9NVI1: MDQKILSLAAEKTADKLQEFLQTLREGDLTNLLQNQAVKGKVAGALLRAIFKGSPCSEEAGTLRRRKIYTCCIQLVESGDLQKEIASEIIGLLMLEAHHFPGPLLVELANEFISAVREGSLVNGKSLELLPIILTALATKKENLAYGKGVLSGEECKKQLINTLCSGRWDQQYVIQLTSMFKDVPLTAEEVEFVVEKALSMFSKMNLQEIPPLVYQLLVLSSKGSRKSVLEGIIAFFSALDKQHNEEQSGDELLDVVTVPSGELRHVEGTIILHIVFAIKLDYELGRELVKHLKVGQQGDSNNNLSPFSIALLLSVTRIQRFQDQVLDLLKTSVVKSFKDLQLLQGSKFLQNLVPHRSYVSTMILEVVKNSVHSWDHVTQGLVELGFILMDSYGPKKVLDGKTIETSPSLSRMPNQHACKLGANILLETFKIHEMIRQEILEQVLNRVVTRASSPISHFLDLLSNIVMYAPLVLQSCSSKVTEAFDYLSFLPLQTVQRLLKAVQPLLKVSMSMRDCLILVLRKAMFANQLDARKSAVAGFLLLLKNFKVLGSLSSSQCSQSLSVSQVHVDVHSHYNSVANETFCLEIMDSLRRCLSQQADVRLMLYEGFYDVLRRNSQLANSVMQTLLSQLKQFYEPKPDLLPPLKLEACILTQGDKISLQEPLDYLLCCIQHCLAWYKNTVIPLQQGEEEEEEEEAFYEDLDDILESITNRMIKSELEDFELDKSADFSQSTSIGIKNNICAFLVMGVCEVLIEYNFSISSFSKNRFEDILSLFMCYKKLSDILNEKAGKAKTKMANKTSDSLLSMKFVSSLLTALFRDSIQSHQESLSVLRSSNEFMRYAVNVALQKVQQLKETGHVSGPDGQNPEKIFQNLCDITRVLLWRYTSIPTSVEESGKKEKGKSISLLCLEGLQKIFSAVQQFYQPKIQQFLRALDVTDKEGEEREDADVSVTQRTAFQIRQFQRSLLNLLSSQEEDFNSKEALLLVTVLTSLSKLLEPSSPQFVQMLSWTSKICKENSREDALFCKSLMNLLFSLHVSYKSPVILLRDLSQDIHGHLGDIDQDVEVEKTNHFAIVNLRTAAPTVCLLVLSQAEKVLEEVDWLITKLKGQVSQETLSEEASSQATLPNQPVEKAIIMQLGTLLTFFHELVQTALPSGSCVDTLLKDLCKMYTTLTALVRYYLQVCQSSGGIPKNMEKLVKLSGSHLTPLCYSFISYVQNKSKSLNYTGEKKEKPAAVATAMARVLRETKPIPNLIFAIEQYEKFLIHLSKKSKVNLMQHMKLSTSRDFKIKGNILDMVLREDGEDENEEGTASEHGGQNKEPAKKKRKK
UniProt Q9GZR1: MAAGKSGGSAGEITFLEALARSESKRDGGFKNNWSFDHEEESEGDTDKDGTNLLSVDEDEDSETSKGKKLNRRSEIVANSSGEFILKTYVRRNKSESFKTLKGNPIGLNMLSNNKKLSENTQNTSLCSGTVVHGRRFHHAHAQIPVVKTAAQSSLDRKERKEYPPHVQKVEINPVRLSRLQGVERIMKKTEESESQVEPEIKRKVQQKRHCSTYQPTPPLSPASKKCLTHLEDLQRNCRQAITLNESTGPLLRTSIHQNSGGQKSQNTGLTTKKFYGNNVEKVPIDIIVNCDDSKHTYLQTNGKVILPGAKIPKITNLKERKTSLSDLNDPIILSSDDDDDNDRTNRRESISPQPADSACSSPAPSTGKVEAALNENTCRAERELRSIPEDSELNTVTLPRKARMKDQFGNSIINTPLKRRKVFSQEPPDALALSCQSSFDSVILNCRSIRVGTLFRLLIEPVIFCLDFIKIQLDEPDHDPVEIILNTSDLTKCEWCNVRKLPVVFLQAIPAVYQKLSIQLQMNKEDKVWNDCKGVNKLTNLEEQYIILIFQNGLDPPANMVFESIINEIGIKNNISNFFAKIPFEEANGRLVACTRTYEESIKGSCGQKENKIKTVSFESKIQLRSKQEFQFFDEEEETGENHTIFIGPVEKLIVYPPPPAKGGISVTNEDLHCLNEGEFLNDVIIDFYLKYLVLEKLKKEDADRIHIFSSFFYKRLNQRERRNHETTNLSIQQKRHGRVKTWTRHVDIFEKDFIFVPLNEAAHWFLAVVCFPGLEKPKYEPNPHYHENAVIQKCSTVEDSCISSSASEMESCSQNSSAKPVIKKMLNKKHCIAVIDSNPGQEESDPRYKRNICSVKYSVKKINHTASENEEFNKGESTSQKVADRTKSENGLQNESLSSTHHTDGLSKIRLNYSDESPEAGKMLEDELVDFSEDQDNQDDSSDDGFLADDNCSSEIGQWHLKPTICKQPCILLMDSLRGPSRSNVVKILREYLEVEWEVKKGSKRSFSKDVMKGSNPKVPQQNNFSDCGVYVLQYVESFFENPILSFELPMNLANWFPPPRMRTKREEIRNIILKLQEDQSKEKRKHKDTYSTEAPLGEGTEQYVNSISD

In publication PMC4416315:

Molecular target: GFP-FANCI (UniProt Q9NVI1)
Experiment: co-IP; GFP IP from U2OS cells cotransfected with GFP-FANCI and HA-SENP6^CI, treated with MMC (0.3 μM); immunoblotting

HA-SENP6^CI (catalytically inactive SENP6 mutant) (from UniProt Q9GZR1) (enzyme)
binding: binds

Results are given in words; binding and its absence hold for the method and conditions named. In cells and extracts the contact can be indirect. A result given as binding can be weak or reduced; the word gives no strength.
